Reference: patent US9216991B2 (Ares Trading S.A., priority 2012, dated 2015)
pIC50: −log10 of the molar value. The match of structure and compound is tentative.

The chains behind the UniProt entries cited, without tags or fusion partners.
UniProt Q9NWZ3, whole entry: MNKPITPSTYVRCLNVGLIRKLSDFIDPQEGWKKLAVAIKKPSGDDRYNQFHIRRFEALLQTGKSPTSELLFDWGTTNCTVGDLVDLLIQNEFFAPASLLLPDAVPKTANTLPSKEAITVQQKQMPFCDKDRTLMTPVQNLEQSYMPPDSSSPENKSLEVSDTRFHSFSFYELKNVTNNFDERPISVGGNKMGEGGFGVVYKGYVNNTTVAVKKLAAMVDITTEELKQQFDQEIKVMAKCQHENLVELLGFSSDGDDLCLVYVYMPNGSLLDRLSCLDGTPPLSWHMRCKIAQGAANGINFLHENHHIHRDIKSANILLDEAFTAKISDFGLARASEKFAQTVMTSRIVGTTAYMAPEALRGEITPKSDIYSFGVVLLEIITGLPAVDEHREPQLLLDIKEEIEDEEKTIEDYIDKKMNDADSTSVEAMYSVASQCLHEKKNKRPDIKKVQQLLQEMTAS

Target: IRAK4 (Homo sapiens, UniProt Q9NWZ3)
Test: IRAK4 Enzymatic Assay
Settings: read-out: IRAK4 IC50; His-TEV-IRAK4 20 ng/well, ATP 2 μM, STK1-biotin peptide 300 nM, 3 hours at 30° C., FlashPlate radioactivity
Procedure: IRAK4 is a human purified recombinant enzyme (His-TEV-IRAK1 (194-712)
IRAK4 hydrolyses ATP, autophosphorylates and phosphorylates a Serine/Threonine generic peptidic substrate (STK: 61ST1BLC from CisBio International based in Bagnols/Cèze FR).
Measurement of IRAK-4 inhibition is performed in streptavidin coated 384 well FlashPlate (PerkinElmer #SMP410A). His-TEV-IRAK4 (20 ng/well), ATP (2 μM, [^33P]ATP 0.25 μCi/well), STK1-biotin peptide (300 nM) and compounds in DMSO (range of concentrations from 20 μM to 1nM) or controls (2% DMSO) are incubated for 3 hours at 30° C. in assay buffer: Hepes pH7.0 50 mM, Fatty acid-free BSA 0.1%, Dithiothreitol DTT 2 mM, MgCl2 10 mM, EGTA 0.5 mM, Tween-20 0.01%, MnCl2 5 mM.
Kinase reaction is stopped by addition of EDTA. Supernatant is discarded, plates are washed three times with 150 mM NaCl and radioactivity is then measured in a Microbeta Trilux reader.

pIC50: 5.30 to 6.00
SMILES: Cn1cc(-c2cccc(-c3ncc(-c4cnn(CC(=O)NC(C)(C)CO)c4)cn3)c2)cn1
